# Results as given in US8263620B2, “Oxadiazole derivatives active on sphingosine-1-phosphate (SIP)” (Glaxo Group Limited, priority 2007, dated 2012).
# Amino acid sequences for entries named in this document (tags omitted). A change or cut given only in a name is not applied to a line headed by its entry.
# UniProt P21453, whole entry: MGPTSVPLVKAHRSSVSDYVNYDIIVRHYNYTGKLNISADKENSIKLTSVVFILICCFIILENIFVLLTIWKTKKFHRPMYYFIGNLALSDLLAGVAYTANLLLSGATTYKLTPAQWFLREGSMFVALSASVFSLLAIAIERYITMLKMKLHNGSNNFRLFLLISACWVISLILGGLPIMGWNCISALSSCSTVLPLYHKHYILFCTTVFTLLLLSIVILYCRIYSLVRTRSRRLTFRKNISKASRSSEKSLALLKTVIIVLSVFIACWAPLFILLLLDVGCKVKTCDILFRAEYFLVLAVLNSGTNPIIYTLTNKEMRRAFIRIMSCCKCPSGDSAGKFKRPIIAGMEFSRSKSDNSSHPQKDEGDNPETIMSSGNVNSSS
# UniProt Q99500: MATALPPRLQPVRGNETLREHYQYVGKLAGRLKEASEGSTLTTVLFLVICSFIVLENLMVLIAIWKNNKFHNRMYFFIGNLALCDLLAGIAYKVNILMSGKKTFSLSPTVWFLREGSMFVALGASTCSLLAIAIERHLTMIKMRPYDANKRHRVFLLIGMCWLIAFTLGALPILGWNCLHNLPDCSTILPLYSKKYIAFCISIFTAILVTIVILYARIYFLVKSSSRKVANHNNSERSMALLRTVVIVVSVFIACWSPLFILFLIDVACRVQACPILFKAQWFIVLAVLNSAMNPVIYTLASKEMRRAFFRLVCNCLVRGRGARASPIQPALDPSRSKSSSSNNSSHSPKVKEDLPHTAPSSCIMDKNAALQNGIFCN
# Counter-ions that a name gives are not always drawn. Some entries share one result that the patent states for a list of compounds.
# Assays:
# [1] = target: T1, human S1P1 receptor (Homo sapiens, UniProt P21453); experiment: S1P1 GTPγS assay; assay type: biochemical; settings: [35S]-GTPγS SPA, human S1P1 rat hepatoma membranes, agonist
# T1 construct: expressed in transfected cells; membranes
# [2] = target: T2, human S1P3 receptor (Homo sapiens, UniProt Q99500); experiment: S1P3 GTPγS assay; assay type: biochemical; settings: [35S]-GTPγS SPA, S1P3 RBL-2H3 membranes, agonist
# T2 construct: expressed in transfected cells; membranes
# Protocol: For membrane preparations all steps were performed at 4° C. Rat hepatoma cells stably expressing the human S1P1 receptor or Rat Basophilic Leukaemia cells (RBL) stably expressing human S1P3 receptor were grown to 80% confluency before being harvested into 10 ml Phospho-Buffered Saline (PBS) and centrifuged at 1200 rpm for 5 minutes. After removal of the supernatant, the pellet was re-suspended and cells were homogenised within a glass Waring blender for 2 bursts of 15 secs in 200 mls of buffer (50 mM HEPES, 1 mM leupeptin, 25 μg/ml bacitracin, 1 mM EDTA, 1 mM PMSF, 2 μM pepstatin A). The blender was plunged into ice for 5 mins after the first burst and 10-40 mins after the final burst to allow foam to dissipate. The material was then spun at 500 g for 20 mins and the supernatant spun for 36 mins at 48,000 g. The pellet was resuspended in the same buffer as above but without PMSF and pepstatin A. The material was then forced through a 0.6 mm needle, made up to the required volume, (usually ×4 the volume of the original cell pellet), aliquoted and stored frozen at −80° C.
# After 30 minutes pre-coupling on ice the bead and membrane suspension was dispensed into a white Greiner polypropylene LV384-well plate (5 μl/well), containing 0.1 μl of the compound. 5 μl/well [^35S]-GTPγS (0.5 nM final radioligand conc) made up in assay buffer was then added to agonist plates. The final assay cocktail (10.1 μl) was centrifuged at 1000 rpm for 5 minutes then read immediately on a Viewlux reader.
# All test compounds were dissolved in DMSO at a concentration of 10 mM and were prepared in 100% DMSO using a 1 in 4 dilution step to provide 11 point dose response curves. The dilutions were transferred to the assay plates ensuring that the DMSO concentration was constant across the plate for all assays.
# All data was normalized to the mean of 16 high and 16 low control wells on each plate. A four parameter curve fit was then applied.
# S1P3 expressing RBL membranes (1.5 μg/well) were homogenised by passing through a 23 G needle. […] GDP 10 μM FAC and saponin 90 μg/ml FAC were also added
# After 30 minutes precoupling on ice, the bead and membrane suspension was dispensed into white Greiner polypropylene LV 384-well plates (5 μl/well), containing 0.1 μl of compound. 5 μl/well [^35S]-GTPγS (0.5 nM for S1P1 or 0.3 nM for S1P3 final radioligand concentration) made in assay buffer was then added to the plates. The final assay cocktail (10.1 μl) was then sealed, spun on a centrifuge, then read immediately on a Viewlux instrument.
pEC50 [1],pEC50 [2],SMILES
> 7,< 6,"Cc1c(-c2noc(-c3ccc(OC(C)C)c(Cl)c3)n2)ccc2c1CCNC2CCCC(=O)O (stereo not drawn) [Example 5, 4-[6-(5-{3-Chloro-4-[(1-methylethyl)oxy]phenyl}-1,2,4-oxadiazol-3-yl)-5-methyl-1,2,3,4-tetrahydro-1-isoquinolinyl]butanoic acid trifluoroacetate]"
,< 6,"Cc1c(-c2noc(-c3ccc(OC(C)C)c(Cl)c3)n2)ccc2c1CCNC2CC(=O)O (stereo not drawn) [Example 3, [6-(5-{3-Chloro-4-[(1-methylethyl)oxy]phenyl}-1,2,4-oxadiazol-3-yl)-5-methyl-1,2,3,4-tetrahydro-1-isoquinolinyl]acetic acid trifluoroacetate]"
> 7,< 6,"Cc1c(-c2noc(-c3ccc(OC(C)C)c(C#N)c3)n2)ccc2c1CCNC2CC(=O)O (stereo not drawn) [Example 4, [6-(5-{3-Cyano-4-[(1-methylethyl)oxy]phenyl}-1,2,4-oxadiazol-3-yl)-5-methyl-1,2,3,4-tetrahydro-1-isoquinolinyl]acetic acid trifluoroacetate]"
> 7,< 6,"CC(C)Oc1ccc(-c2nc(-c3cccc4c3CCNC4CC(=O)O)no2)cc1Cl.Cl (stereo not drawn) [Example 1, [5-(5-{3-Chloro-4-[(1-methylethyl)oxy]phenyl}-1,2,4-oxadiazol-3-yl)-1,2,3,4-tetrahydro-1-isoquinolinyl]acetic acid hydrochloride]"
> 7,< 6,"Cc1c(-c2noc(-c3ccc(OC(C)C)c(C#N)c3)n2)ccc2c1CCNC2CCCC(=O)O (stereo not drawn) [Example 6, 4-[6-(5-{3-Cyano-4-[(1-methylethyl)oxy]phenyl}-1,2,4-oxadiazol-3-yl)-5-methyl-1,2,3,4-tetrahydro-1-isoquinolinyl]butanoic acid trifluoroacetate]"
